Patent US9868954B2, “Reduction of TGFβ signaling in myeloid cells in the treatment of cancer” (The United States of America, as represented by the …, priority 2011, dated 2018)
At least one compound was matched to its structure with a doubt left.

System: Gr-1+CD11b+ myeloid cells from Tgfbr2^myeKO
Assay: Expression of IL-10, IL-4 and PF4 (Western blotting, quantitative PCR) in sorted Gr-1+CD11b+ myeloid cells cultured with pathway inhibitors
Assay type: cell-based, mice
Conditions: myeloid cells lacking Tgfbr2, cultured 6 hours with inhibitor; mRNA level and protein level
Protocol: Gr-1+CD11b+ myeloid cells were sorted with MACS from Tgfbr2^myeKO and cultured for 6 hours with an inhibitor of GSK3 (SB216763, Sigma) or PI3K (LY294002, Calbiochem) at different doses (2, 5, and 10 μM for the GSK3 inhibitor; 5, 10, and 20 μM for the PI3K inhibitor). SB216763 is a potent and selective ATP-competitive inhibitor of the serine/threonine protein kinas GSK α and β. […] GSK3 Western blotting was performed to detect inhibiting activity. The expression of IL-10, IL-4, and PF4 was examined using Western blotting and quantitative PCR.

O=c1cc(N2CCOCC2)oc2c(-c3ccccc3)cccc12 [LY294002]
expression of IL-10, IL-4, and PF4: decreased IL-10, IL4, and P4
